# In PMC12040169 (PLOS Biology, 2025):
# The other results are listed elsewhere or left out.
# System: T1, CTL2-GFP (C. trachomatis L2/434/Bu, GFP-expressing)
# T1 construct: L2/434/Bu, GFP-expressing
# Design: species or system HeLa; Intracellular C. trachomatis growth in HeLa cells, bulk GFP fluorescence relative to DMSO
# Details: bulk GFP, single well; 28.5 h, 10 µM; inhibitor
row,Compound,% of control remaining
1,O=c1n(C(c2ccccc2)c2ccccc2)ccn1S(=O)(=O)c1ccc(Oc2ccccc2)cc1 [CBK106624],100.377%
2,Cc1ccc2oc([C@H]3CN(C(=O)C4CCN(C(=O)OC(C)(C)C)CC4)C[C@@H]3C(=O)O)cc2c1 [CBK001601],134.23%
3,CC1(C)CC(=O)c2c(O)cc(OCC(=O)c3ccc(Cl)c(Cl)c3)cc2O1 [CBK267573],130.85%
4,O=C(CNS(=O)(=O)c1cccc(Cl)c1)Nc1ccc(-c2nc3ccccc3s2)cc1 [CBK267178],156.664%
5,COc1ccc(CC(=O)N2CCCC(c3nc(C)c4c(n3)N(CC3CC3)CCC4)C2)cc1 (centres unmarked) [CBK286228],5.486%
6,C/C(=N\NC(=O)CCC(=O)Nc1ccccc1C)c1ccc(O)cc1O [CBK261946],127.586%
7,COc1ccc(C)cc1-n1ccc(C(=O)N2CCSCC2)n1 [CBK305972],151.209%
8,Cn1cccc1C(=O)NCCNC(=O)c1cc2ccccc2[nH]1 [CBK297894],89.019%
9,Cc1cc(C(=O)N2CC3CCCC(O)(c4cccn4C)C3C2)c(C)[nH]1 (centres unmarked) [CBK284514],115.844%
10,CC(=O)Nc1ccc(NC(=O)c2cc(-c3ccc(Cl)cc3Cl)nc3ccccc23)cc1 [CBK265080],100%
11,O=C(CSc1nc2ccccc2[nH]1)n1c2c(c3ccccc31)CCCC2 [CBK263945],99.0451%
12,CN1C(=O)/C(=C2\SC(=S)N(C(Cc3ccccc3)C(=O)O)C2=O)c2ccccc21 (centres unmarked) [CBK263507],113.104%
13,Cn1cc(C(Nc2cccc(C#N)n2)[C@H]2C[C@H](O)C2)cn1 (some centres unmarked) [CBK307011],118.299%
14,Clc1nc2ccccc2nc1OCCOc1ccccc1 [CBK113367],94.4253%
15,COCCNc1nc(-c2ccoc2)cn2ccnc12 [CBK066416],153.649%
16,CCN(C(=O)c1n[nH]c2c1CCC2)C1CCN(C)CC1 [CBK281870],130.151%
17,Cc1cc(C)nc(N/N=C/c2cn(-c3ccccc3)nc2-c2ccc([N+](=O)[O-])cc2)n1 [CBK262864],118.773%
18,FC(F)(F)c1ccc(OCCN2CCNCC2)nc1 [CBK113462],121.486%
19,Cc1nc2c(c(N(C)C)n1)CCN(C(=O)C(C)n1cc(Cl)cn1)C2 (centres unmarked) [CBK307293],155.563%
20,CC(C)c1ccc(OCCc2cc(C3CCN(C(=O)CC4CCCC4)C3)n[nH]2)cc1 (centres unmarked) [CBK286129],60.9406%
21,Cc1cc(C)n(CCCN(C)Cc2ccc(N3CCCC3=O)cc2)n1 [CBK281827],125.045%
22,CCCC(=O)NC[C@H]1CC[C@H](c2nnc(-c3ccsc3)o2)CC1 [CBK283362],118.408%
23,COc1cc(Nc2nc(-c3ccc4[nH]ccc4c3)cn3ccnc23)cc(OC)c1OC [CBK038069],199.938%
24,O=C(Nc1cccc(-c2ccc3nncn3n2)c1)c1ccc(F)cc1 [CBK287682],97.8653%
25,Clc1ccc(CN2CCC(Oc3cncc(OCCN4CCOCC4)n3)C2)cc1Cl (centres unmarked) [CBK084477],65.3238%
26,CCc1cccc(CC)c1NC(=O)CN(c1cccc(Br)c1)S(C)(=O)=O [CBK265986],129.061%

row,Compound,% of control remaining
1,CCCc1c(C(=O)N2CCN(C)CC2)cnn1-c1cc(Cl)cc(Cl)c1 [CBK107375],98.8751%
2,Cc1cc(NS(=O)(=O)c2ccc(Nc3nc(-c4ccc(Cl)cc4Cl)cs3)cc2)no1 [CBK267298],68.4615%
3,COc1ccc(/C=C(/NC(=O)c2cccc([N+](=O)[O-])c2)C(=O)O)cc1OC [CBK263362],122.209%
4,COc1cc(/C=C2/NC(=O)N(c3cccc(Cl)c3)C2=O)ccc1OCC(=O)Nc1ccc(F)cc1 [CBK265691],125.845%
5,COc1ccc(N2CCN(CC(=O)N3CCC(C(N)=O)CC3)CC2)cc1 [CBK268993],112.806%
6,Cc1nc(-c2cccs2)cc([C@H]2CN3CC[C@H]2C[C@@H]3CNC(=O)c2ccco2)n1 [CBK289127],104.104%
7,S=C(NC1=NCCS1)Nc1ccccc1 [CBK016591],129.302%
8,O=C1CCC(=O)N1CCOc1nccnc1OC1CCN(Cc2ccccc2F)CC1 [CBK084337],91.8674%
9,O=C1CSC2(C(=O)N(Cc3ccccc3)c3ccccc32)N1c1ccccc1 (centres unmarked) [CBK092391],119.502%
10,O=C(NC1CCCCC1)c1cc(Br)cnc1NCCCn1ccnc1 [CBK076494],133.83%
11,O=C(NCCNC1CCC(c2ccccc2)CC1)c1ccc(F)cc1 (centres unmarked) [CBK266857],101.624%
12,O=C(COc1ccc(Cl)cc1)NNC(=O)Cc1cccc2ccccc12 [CBK261693],116.868%
13,CCOC(=O)C(C)n1ncc2c3sc(C)cc3n(C)c2c1=O (centres unmarked) [CBK284157],115.377%
14,O=C(c1cc(S(=O)(=O)N2CCOCC2)ccc1Cl)N1CCCCC1 [CBK304377],153.595%
15,O=C(NC1CCCN(CC(F)(F)F)C1=O)c1cnc(-c2ccncc2)s1 (centres unmarked) [CBK306175],119.094%
16,CCCC(=O)N1CCC(Cc2ccc(-c3cccc(C)c3)cc2)(C(=O)NC)CC1 [CBK285786],129.223%
17,O=C(CCn1c(C(F)F)cc2cccnc21)NC1CCCC1 [CBK285063],116.023%
18,O=C(Cn1nc(C(F)(F)F)c2cccn2c1=O)NC1CCCC1 [CBK282867],117.79%
19,CN1CCN(C)C(COc2nccc(C(F)(F)F)n2)C1 (centres unmarked) [CBK113298],117.805%
20,Cn1nc(C2CC2)cc1C(=O)NCCCN1CCCc2ccccc21 [CBK282476],117.65%
21,COc1ccc([C@@]23CC[C@@H](NC(=O)Nc4ccc(F)c(F)c4)C[C@@H]2N(C(=O)CN)CC3)cc1OC [CBK051679],70.4442%
22,Cn1ccnc1CN1C(=O)CO[C@H]2CN(c3ncccn3)C[C@H]21 [CBK289704],95.8283%
23,COCCC(=O)NCc1ccc(OC2CCNCC2)cc1 [CBK024494T],168.56%
24,O=C(O)COc1ccc(NC(=O)C2CCCO2)cc1 (centres unmarked) [CBK270063],130.015%
25,O=C1Nc2ccc(-c3ccc(Cl)cc3)cc2C(=O)N2CCN(C(=O)CO)C[C@H]12 [CBK289594],112.007%
26,O=C(c1cccnc1)C1CCN(C(=O)Cc2ccccc2F)CC1 [CBK283814],111.965%

# As entered above:
# % of control remaining with S=C(NC1=NCCS1)Nc1ccccc1 [CBK016591] is entered as 129.302%
# % of control remaining with Cn1ccnc1CN1C(=O)CO[C@H]2CN(c3ncccn3)C[C@H]21 [CBK289704] is entered as 95.8283%
# % of control remaining with O=C(NC1CCCN(CC(F)(F)F)C1=O)c1cnc(-c2ccncc2)s1 (centres unmarked) [CBK306175] is entered as 119.094%
# % of control remaining with O=C(NC1CCCCC1)c1cc(Br)cnc1NCCCn1ccnc1 [CBK076494] is entered as 133.83%

# Later entries.

row,Compound,% of control remaining
1,COc1ccc(C)cc1S(=O)(=O)N(C)CC(=O)Nc1cccc(Cl)c1 [CBK269493],135.853%
2,Cc1nn(C(C)C)c(C)c1CN1CCN(C2CCCCC2)C(=O)C1 [CBK282562],93.945%
3,CC1CCC2(CC1)NC(=O)N(Cc1csc(-c3ccco3)n1)C2=O (centres unmarked) [CBK304279],109.375%
4,Cc1ccccc1CC(=O)NCC(c1ccccc1Cl)N1CCOCC1 (centres unmarked) [CBK304564],106.282%
5,COc1cc(CN2CCC(N3CCCCC3)CC2)c([N+](=O)[O-])cc1OC [CBK261858],124.482%
6,CCN(CC)C(=O)C1CCCN(C(=O)Nc2cccnc2)C1 (centres unmarked) [CBK156157],95.035%
7,C=C(C)Cn1c(SCC(C)C)nnc1-c1cccs1 [CBK200086],96.2259%
8,CN(CCOc1ccc(Cl)cc1)C(=O)COc1cc2ccccc2cc1C(=O)O [CBK296720],140.977%
9,O=S(=O)(Nc1nnn[nH]1)c1ccc(-c2ccon2)s1 [CBK062391],103.768%
10,Nc1nonc1C(=O)NCCNC(=O)c1ccco1 [CBK058480],109.098%
11,Cc1ccc(S(=O)(=O)Nc2nc(C)c(C(=O)O)s2)cc1[N+](=O)[O-] [CBK045565],96.5334%
12,Cc1noc2nc(-c3cccnc3)cc(C(=O)O)c12 [CBK288207],132.671%
13,O=C1CCC[C@]2(CN(Cc3ccccc3)C[C@H]2c2cccnc2)N1 [CBK283349],150.187%
14,CCN(CC)CCNc1nc2cc(Cl)ccc2[nH]1 [CBK262453],100%
15,CCS(=O)(=O)N1CCN(Cc2ccc3c(c2)OCO3)CC1 [CBK074545],119.049%
16,COc1ccccc1NS(=O)(=O)c1ccc(C)c(C(=O)NCC(c2ccco2)N2CCCCC2)c1 (centres unmarked) [CBK296669],115.855%
17,CCCCCC(=O)Nc1ccc(C(=O)Cn2nc(C(=O)O)c3ccccc3c2=O)cc1 [CBK295628],142.323%
18,O=C(O)CCC(=O)N(Cc1ccco1)C1CC(=O)N(c2ccc(F)cc2)C1=O (centres unmarked) [CBK287059],126.732%
19,O=C(NCc1cccnc1)c1ncoc1-c1cccc(Cl)c1 [CBK282403],141.985%
20,Cc1cc(C)c(S(=O)(=O)N2CCC(C(=O)NNC(=S)NC3CCCC3)CC2)c(C)c1 [CBK266844],161.556%
21,COc1ccc(C(=O)NCCCN(C)C)cc1Nc1cncc(-c2ccc(O)cc2)n1 [CBK126938T],102.71%
22,Cc1nc(CN2[C@H]3CCCCC(=O)N[C@@]3(C)C[C@H]2c2cccc(C(F)(F)F)c2)cs1 [CBK285701],122.115%
23,Cc1nn(C)c(N2CCNCC2)c1NC(=O)c1cnccn1 [CBK050308T],123.458%
24,O=C(Nc1ccccc1)N1C[C@@H]2C[C@H](C1)c1c(-c3cccnc3)ccc(=O)n1C2 [CBK289193],155.63%
25,CCOc1ccsc1C(=O)Nc1cc2ccccc2c(N2CCNCC2)n1 [CBK036341T],110.149%
